Data published in publication PMC6974163.
These are yes or no findings as the source states them, for the method shown. For some of these results: Binding seen in cells or lysates may run through a third protein. Some results given as binding are weak or reduced against the parent protein; the word gives no strength. Where a sequence is shown, tags or fusion partners need not be part of it.

T1: full-length murine FRAT2 (amino acids 1-232), LexA fusion bait (mouse) (UniProt Q8K025)
T1 sequence: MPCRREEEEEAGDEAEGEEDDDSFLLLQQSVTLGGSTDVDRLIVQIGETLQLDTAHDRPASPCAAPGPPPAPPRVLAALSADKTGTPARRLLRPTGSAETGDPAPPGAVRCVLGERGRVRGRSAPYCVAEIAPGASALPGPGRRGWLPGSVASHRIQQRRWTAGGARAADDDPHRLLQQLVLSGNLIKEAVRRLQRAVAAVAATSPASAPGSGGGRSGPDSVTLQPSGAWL

T2: FRAT2ΔN (murine Frat2 amino acids 139-232), LexA fusion bait (mouse) (UniProt Q8K025)
T2 sequence: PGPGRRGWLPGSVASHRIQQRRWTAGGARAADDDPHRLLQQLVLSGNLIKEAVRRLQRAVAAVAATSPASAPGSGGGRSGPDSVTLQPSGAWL

T3: full-length TMEM98-FLAG (murine, amino acids 1-226) (mouse) (UniProt Q91X86)
T3 sequence: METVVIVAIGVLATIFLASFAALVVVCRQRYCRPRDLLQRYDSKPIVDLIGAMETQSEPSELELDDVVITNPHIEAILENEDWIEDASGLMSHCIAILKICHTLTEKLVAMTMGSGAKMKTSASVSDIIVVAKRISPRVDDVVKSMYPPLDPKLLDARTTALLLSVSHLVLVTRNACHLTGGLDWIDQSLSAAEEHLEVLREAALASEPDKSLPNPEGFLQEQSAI


Columns and labels:
[1] = target: T1, full-length murine FRAT2 (amino acids 1-232), LexA fusion bait (mouse); assay: two-hybrid; Hybrigenics screen; LexA fusion of full-length Frat2 as bait in L40ΔGAL4 yeast, mated with a human fetal brain random-primed cDNA library in Y187 yeast; selection on medium lacking leucine, tryptophane and histidine; no auto-activation of the bait; 95 million interactions tested
[2] = target: T2, FRAT2ΔN (murine Frat2 amino acids 139-232), LexA fusion bait (mouse); assay: two-hybrid; Hybrigenics screen; LexA fusion of Frat2ΔN as bait in L40ΔGAL4 yeast, mated with a human fetal brain random-primed cDNA library in Y187 yeast; selection on medium lacking leucine, tryptophane and histidine; bait auto-activates, 50 mM 3-aminotriazole; 87 million interactions tested
[3] = target: T3, full-length TMEM98-FLAG (murine, amino acids 1-226) (mouse); assay: co-IP; lysates of transiently transfected HEK293TN cells; anti-FLAG (M2) antibody at 4°C, protein G sepharose, washes in RIPA buffer; Western blot

| binding [1] | binding [2] | binding [3] | Binder |
| --- | --- | --- | --- |
| binds | binds | – | TMEM98 (human), prey clones of the yeast two-hybrid screens (domain or fragment, UniProt Q9Y2Y6 66-226) DVVITNPHIEAILENEDWIEDASGLMSHCIAILKICHTLTEKLVAMTMGSGAKMKTSASVSDIIVVAKRISPRVDDVVKSMYPPLDPKLLDARTTALLLSVSHLVLVTRNACHLTGGLDWIDQSLSAAEEHLEVLREAALASEPDKGLPGPEGFLQEQSAI |
| – | – | binds | myc-FRAT1 (protein, UniProt P70339 1-274) MPCRREEEEEAGDEAEGEEDDDSFLLLQQSVTLGGSTDVDQLIVQIGETLQLDAAHDRPASPCAAPGPPPPQVLAALPADKTGTPARRLLRPTGSAETGNPAPPGAVRCVLGERGRVRGRSAPYCVAEISPGASALPQQPGLDGPPGTGKLSTPQPLSGPCRRGWLRNAAASRRLQQRRGSQPETRTGDDDDPHRLLQQLVLSGNLIKEAVRRLHSRQLQLHAKLPAHPFLGPLSAPVHEPPSPGSPRAACSDPGAFMGRAQLRTGDDLLVPGS |
| – | – | binds | myc-FRAT2 (protein, UniProt Q8K025 1-231) MPCRREEEEEAGDEAEGEEDDDSFLLLQQSVTLGGSTDVDRLIVQIGETLQLDTAHDRPASPCAAPGPPPAPPRVLAALSADKTGTPARRLLRPTGSAETGDPAPPGAVRCVLGERGRVRGRSAPYCVAEIAPGASALPGPGRRGWLPGSVASHRIQQRRWTAGGARAADDDPHRLLQQLVLSGNLIKEAVRRLQRAVAAVAATSPASAPGSGGGRSGPDSVTLQPSGAWL |
